The text below walks through data of PubChem BioAssay AID2685 (National Center for Advancing Translational Sciences (NCATS), 2010).

The assay is described as follows: qHTS Assay for Lipid Storage Modulators in Drosophila S3 Cells.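 As to cell number change: cells counted by Cell Tracker Red CMTPX staining in the red channel.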 The following applies: BODIPY lipid droplet fluorescence, 18-24 h; for cell number change: measured here: cell count max response, cells fed with added oleic acid. A digest of the protocol:
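Drosophila S3 cells loaded with oleic acid (400 uM, as added) and compounds at several concentrations; lipid droplets imaged by 488-nm laser-scanning cytometry, 500–530 nm intensity and object ratio to cell channel. Percent activity normalized to 20 uM Triacsin C.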

Setting [1] is: measured here: cell number channel AC50, cells fed with added oleic acid.
Where [2] appears, read: measured here: lipid fluorescence (Fed channel) AC50, cells fed with added oleic acid.

Some of the results follow. Shown are side measurements of this screen, not its main read-out; they come without a call. Most of these compounds were active or inconclusive in the main read-out, so they are no random draw. Words in brackets tell the shape of the fitted curve; partial curves, single points and poor fits give uncertain potencies.

The term AC50 denotes the concentration giving half of the maximal activity seen. Turning to `CCCOC(=O)c1[nH]c2c(c1C)C(=O)CC(c1cc(OC)c(OC)c(OC)c1)C2` (stereo not given), the cell number change is -42.6%. Moreover, the AC50 under setting [1] was 16.4 µM [falling, single point]. The AC50 under setting [2] is 29.1 µM [falling, single point].
On to `COc1ccccc1NC(=S)NCC1CCCO1` (stereo not given), for which the cell number change was -2.25%. Under setting [1], the AC50 is 0.58 µM [rising, partial curve, poor fit]. Under setting [2], the AC50 was 0.517 µM [rising, partial curve, poor fit].
As to `COc1ccc(C(=O)N/C(=C/c2cccs2)C(=O)NN)cc1OC`, the cell number change amounted to 32%. Under setting [1], the half-maximal activity concentration (AC50) is 16.4 µM [rising, single point]. Besides, the AC50 under setting [2] is 23.1 µM [rising, single point].
As for `CC(=C/c1ccccc1)/C=N/NC(=O)c1ccc2nc[nH]c2c1`, the cell number change was -42.1%. The AC50 under setting [1] is 6.51 µM [rising, single point]. Also, the concentration at half-maximal activity (AC50) under setting [2] is 13 µM [rising, single point].
For the compound `Cc1ccccc1-c1nc(SCc2cccnc2)c2c(=O)n(C)c(=O)n(C)c2n1`, the cell number change was 47.8%. For the same compound, the AC50 under setting [1] is 2.59 µM [rising, full curve].
On to `COCCn1c(C)cc(/C=C(\C#N)C(=O)OC(C)C(=O)Nc2ccc(NC(C)=O)cc2)c1C` (stereo not given), for which the cell number change came out at 206%. In addition, the AC50 under setting [1] is 14.6 µM [rising, partial curve].
For the compound `COc1ccccc1NS(=O)(=O)c1cc(NC(=O)c2ccco2)ccc1N1CCOCC1`, the cell number change is 19.5%. Further, the half-maximal activity concentration (AC50) under setting [1] was 0.731 µM [rising, full curve, poor fit]. The half-maximal activity concentration (AC50) under setting [2] was 0.58 µM [rising, single point].
`CC1CCN(CC(=O)Nc2ccccc2C#N)CC1`: the cell number change is -22.2%. In addition, the half-maximal activity concentration (AC50) under setting [2] is 18.4 µM [falling, partial curve].
Turning to `CCc1ccc(OCC(=O)N2CCN(c3ccccn3)CC2)c(Br)c1`, the cell number change was found to be 15.7%. The AC50 under setting [1] was 3.26 µM [rising, partial curve, poor fit].
`O=C(Oc1ccc(-c2cnc3ccccc3n2)cc1)c1ccc(Cl)c([N+](=O)[O-])c1`: the cell number change is -4.51%. Further, the AC50 under setting [2] is 23.1 µM [falling, partial curve, poor fit].
Take `CN1CCN(Cc2nc3ccccc3c(=O)n2Cc2nc(-c3ccc4ccccc4c3)cs2)CC1`: the cell number change is -62.1%. The AC50 under setting [1] was 23.1 µM [falling, single point]. Also, the concentration at half-maximal activity (AC50) under setting [2] is 20.6 µM [falling, single point].
For the compound `CSCCC(NC(=O)c1ccc(=O)n(C)n1)c1nc2ccccc2[nH]1` (stereo not given), the cell number change came to 4.81%. The concentration at half-maximal activity (AC50) under setting [2] was 29.1 µM [rising, single point].
Regarding `Brc1ccc(CN2CCSCC2)cc1`, the cell number change is -24.7%. For the same compound, under setting [1], the concentration at half-maximal activity (AC50) was 1.64 µM [falling, partial curve, poor fit]. The half-maximal activity concentration (AC50) under setting [2] was 6.51 µM [falling, single point].
Consider `O=C(CCCNC(=O)c1ccc(Cl)cc1)Nc1ccccc1C(F)(F)F`, for which the cell number change came out at 27%. Moreover, the concentration at half-maximal activity (AC50) under setting [2] is 29.1 µM [rising, single point].
